These results are taken from patent US20040127518A1, “Modulation of anxiety through blockade of anandamide hydrolysis” (priority 2002, published 2004).

Amino acid sequences for entries named in this document (tags omitted).
UniProt P97612, whole entry: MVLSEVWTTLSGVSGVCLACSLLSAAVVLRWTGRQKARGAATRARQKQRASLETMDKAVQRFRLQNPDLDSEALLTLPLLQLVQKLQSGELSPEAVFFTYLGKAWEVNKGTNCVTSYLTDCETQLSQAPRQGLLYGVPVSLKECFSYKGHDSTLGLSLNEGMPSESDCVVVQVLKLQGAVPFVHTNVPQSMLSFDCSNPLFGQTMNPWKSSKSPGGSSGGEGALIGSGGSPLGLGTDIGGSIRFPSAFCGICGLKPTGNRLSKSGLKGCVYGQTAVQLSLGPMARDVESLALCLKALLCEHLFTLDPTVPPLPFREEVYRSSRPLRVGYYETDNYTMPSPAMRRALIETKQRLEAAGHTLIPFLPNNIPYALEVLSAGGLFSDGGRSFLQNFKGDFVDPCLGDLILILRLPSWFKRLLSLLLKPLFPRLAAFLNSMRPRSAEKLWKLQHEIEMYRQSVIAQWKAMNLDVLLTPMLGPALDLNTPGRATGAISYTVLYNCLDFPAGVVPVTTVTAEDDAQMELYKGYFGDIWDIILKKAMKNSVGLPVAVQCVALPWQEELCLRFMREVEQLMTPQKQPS
UniProt O42275, whole entry: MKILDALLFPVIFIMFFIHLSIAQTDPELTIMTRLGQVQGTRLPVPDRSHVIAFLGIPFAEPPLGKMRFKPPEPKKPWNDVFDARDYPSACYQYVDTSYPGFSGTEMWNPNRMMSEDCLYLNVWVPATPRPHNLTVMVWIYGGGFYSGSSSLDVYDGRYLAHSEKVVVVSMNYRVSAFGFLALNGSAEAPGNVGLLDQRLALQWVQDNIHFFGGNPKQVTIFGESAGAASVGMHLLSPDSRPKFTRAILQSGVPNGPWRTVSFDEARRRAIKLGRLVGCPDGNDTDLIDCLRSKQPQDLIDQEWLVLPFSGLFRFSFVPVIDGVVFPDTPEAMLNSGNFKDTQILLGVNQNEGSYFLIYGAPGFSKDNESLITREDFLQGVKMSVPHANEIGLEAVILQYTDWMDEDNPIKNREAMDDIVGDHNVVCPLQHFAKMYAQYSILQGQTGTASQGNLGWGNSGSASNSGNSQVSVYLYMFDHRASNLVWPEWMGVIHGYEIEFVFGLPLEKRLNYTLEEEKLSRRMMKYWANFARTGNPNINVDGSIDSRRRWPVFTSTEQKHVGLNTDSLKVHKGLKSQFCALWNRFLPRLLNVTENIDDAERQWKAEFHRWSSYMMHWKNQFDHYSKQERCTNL

Read-outs that look alike come from different tables or passages of the source. Structures were worked out from names or drawings and are uncertain.

Test [1] has as its target FAAH (Rattus norvegicus, UniProt P97612).
Test [2] concerns the target electric eel acetylcholinesterase (Electrophorus electricus, UniProt O42275). As to conditions: read-out: Cholinesterase IC50, Table 3.

Consider `CCOC(=O)C(=O)CCc1ccccc1`, for which the IC50 in test [1] (read-out: Amidohydrolase IC50, Table 3) is 25.6 µM; in test [1] (read-out: Inhibition of Amidohydrolase IC50, Table 4, FAAH IC50), 25.6 µM; in test [2], greater than 30 µM.
